According to patent publication US11220671B2, “Methods for the maturation of cardiomyocytes on amniotic fluid cell-derived ECM, cellular constructs, and uses for cardiotoxicity and proarrhythmic screening of drug compounds” (STEMBIOSYS, INC., priority 2019, dated 2022):

B1: T-complex protein 1 subunit delta (protein, UniProt P50991 2-539, looked up)
T-complex protein 1 subunit …: PENVAPRSGATAGAAGGRGKGAYQDRDKPAQIRFSNISAAKAVADAIRTSLGPKGMDKMIQDGKGDVTITNDGATILKQMQVLHPAARMLVELSKAQDIEAGDGTTSVVIIAGSLLDSCTKLLQKGIHPTIISESFQKALEKGIEILTDMSRPVELSDRETLLNSATTSLNSKVVSQYSSLLSPMSVNAVMKVIDPATATSVDLRDIKIVKKLGGTIDDCELVEGLVLTQKVSNSGITRVEKAKIGLIQFCLSAPKTDMDNQIVVSDYAQMDRVLREERAYILNLVKQIKKTGCNVLLIQKSILRDALSDLALHFLNKMKIMVIKDIEREDIEFICKTIGTKPVAHIDQFTADMLGSAELAEEVNLNGSGKLLKITGCASPGKTVTIVVRGSNKLVIEEAERSIHDALCVIRCLVKKRALIAGGGAPEIELALRLTEYSRTLSGMESYCVRAFADAMEVIPSTLAENAGLNPISTVTELRNRHAQGEKTAGINVRKGGISNILEELVVQPLLVSVSALTLATETVRSILKIDDVVNTR
B2: Heterogeneous nuclear ribonucleoprotein M (protein, UniProt P52272 2-730, looked up)
Heterogeneous nuclear …: AAGVEAAAEVAATEIKMEEESGAPGVPSGNGAPGPKGEGERPAQNEKRKEKNIKRGGNRFEPYANPTKRYRAFITNIPFDVKWQSLKDLVKEKVGEVTYVELLMDAEGKSRGCAVVEFKMEESMKKAAEVLNKHSLSGRPLKVKEDPDGEHARRAMQKVMATTGGMGMGPGGPGMITIPPSILNNPNIPNEIIHALQAGRLGSTVFVANLDYKVGWKKLKEVFSMAGVVVRADILEDKDGKSRGIGTVTFEQSIEAVQAISMFNGQLLFDRPMHVKMDERALPKGDFFPPERPQQLPHGLGGIGMGLGPGGQPIDANHLNKGIGMGNIGPAGMGMEGIGFGINKMGGMEGPFGGGMENMGRFGSGMNMGRINEILSNALKRGEIIAKQGGGGGGGSVPGIERMGPGIDRLGGAGMERMGAGLGHGMDRVGSEIERMGLVMDRMGSVERMGSGIERMGPLGLDHMASSIERMGQTMERIGSGVERMGAGMGFGLERMAAPIDRVGQTIERMGSGVERMGPAIERMGLSMERMVPAGMGAGLERMGPVMDRMATGLERMGANNLERMGLERMGANSLERMGLERMGANSLERMGPAMGPALGAGIERMGLAMGGGGGASFDRAIEMERGNFGGSFAGSFGGAGGHAPGVARKACQIFVRNLPFDFTWKMLKDKFNECGHVLYADIKMENGKSKGCGVVKFESPEVAERACRMMNGMKLSGREIDVRIDRNA
B3: Microtubule-associated protein 4 (protein, UniProt P27816 2-1152, looked up)
Microtubule-associated …: ADLSLADALTEPSPDIEGEIKRDFIATLEAEAFDDVVGETVGKTDYIPLLDVDEKTGNSESKKKPCSETSQIEDTPSSKPTLLANGGHGVEGSDTTGSPTEFLEEKMAYQEYPNSQNWPEDTNFCFQPEQVVDPIQTDPFKMYHDDDLADLVFPSSATADTSIFAGQNDPLKDSYGMSPCNTAVVPQGWSVEALNSPHSESFVSPEAVAEPPQPTAVPLELAKEIEMASEERPPAQALEIMMGLKTTDMAPSKETEMALAKDMALATKTEVALAKDMESPTKLDVTLAKDMQPSMESDMALVKDMELPTEKEVALVKDVRWPTETDVSSAKNVVLPTETEVAPAKDVTLLKETERASPIKMDLAPSKDMGPPKENKKETERASPIKMDLAPSKDMGPPKENKIVPAKDLVLLSEIEVAQANDIISSTEISSAEKVALSSETEVALARDMTLPPETNVILTKDKALPLEAEVAPVKDMAQLPETEIAPAKDVAPSTVKEVGLLKDMSPLSETEMALGKDVTPPPETEVVLIKNVCLPPEMEVALTEDQVPALKTEAPLAKDGVLTLANNVTPAKDVPPLSETEATPVPIKDMEIAQTQKGISEDSHLESLQDVGQSAAPTFMISPETVTGTGKKCSLPAEEDSVLEKLGERKPCNSQPSELSSETSGIARPEEGRPVVSGTGNDITTPPNKELPPSPEKKTKPLATTQPAKTSTSKAKTQPTSLPKQPAPTTIGGLNKKPMSLASGLVPAAPPKRPAVASARPSILPSKDVKPKPIADAKAPEKRASPSKPASAPASRSGSKSTQTVAKTTTAAAVASTGPSSRSPSTLLPKKPTAIKTEGKPAEVKKMTAKSVPADLSRPKSTSTSSMKKTTTLSGTAPAAGVVPSRVKATPMPSRPSTTPFIDKKPTSAKPSSTTPRLSRLATNTSAPDLKNVRSKVGSTENIKHQPGGGRAKVEKKTEAAATTRKPESNAVTKTAGPIASAQKQPAGKVQIVSKKVSYSHIQSKCGSKDNIKHVPGGGNVQIQNKKVDISKVSSKCGSKANIKHKPGGGDVKIESQKLNFKEKAQAKVGSLDNVGHLPAGGAVKTEGGGSEAPLCPGPPAGEEPAISEAAPEAGAPTSASGLNGHPTLSGGGDQREAQTLDSQIQETSI
B4: TREMBL: Q0IIK2 (Bos taurus) Transferrin (protein, UniProt Q29443 20-704, looked up)
Serotransferrin: DPERTVRWCTISTHEANKCASFRENVLRILESGPFVSCVKKTSHMDCIKAISNNEADAVTLDGGLVYEAGLKPNNLKPVVAEFHGTKDNPQTHYYAVAVVKKDTDFKLNELRGKKSCHTGLGRSAGWNIPMAKLYKELPDPQESIQRAAANFFSASCVPCADQSSFPKLCQLCAGKGTDKCACSNHEPYFGYSGAFKCLMEGAGDVAFVKHSTVFDNLPNPEDRKNYELLCGDNTRKSVDDYQECYLAMVPSHAVVARTVGGKEDVIWELLNHAQEHFGKDKPDNFQLFQSPHGKDLLFKDSADGFLKIPSKMDFELYLGYEYVTALQNLRESKPPDSSKDECMVKWCAIGHQERTKCDRWSGFSGGAIECETAENTEECIAKIMKGEADAMSLDGGYLYIAGKCGLVPVLAENYKTEGESCKNTPEKGYLAVAVVKTSDANINWNNLKDKKSCHTAVDRTAGWNIPMGLLYSKINNCKFDEFFSAGCAPGSPRNSSLCALCIGSEKGTGKECVPNSNERYYGYTGAFRCLVEKGDVAFVKDQTVIQNTDGNNNEAWAKNLKKENFEVLCKDGTRKPVTDAENCHLARGPNHAVVSRKDKATCVEKILNKQQDDFGKSVTDCTSNFCLFQSNSKDLLFRDDTKCLASIAKKTYDSYLGDDYVRAMTNLRQCSTSKLLEACTFHKP
B5: Keratin, type I cytoskeletal 9 (protein, UniProt P35527 1-623, looked up)
Keratin, type I cytoskeletal 9: MSCRQFSSSYLSRSGGGGGGGLGSGGSIRSSYSRFSSSGGGGGGGRFSSSSGYGGGSSRVCGRGGGGSFGYSYGGGSGGGFSASSLGGGFGGGSRGFGGASGGGYSSSGGFGGGFGGGSGGGFGGGYGSGFGGFGGFGGGAGGGDGGILTANEKSTMQELNSRLASYLDKVQALEEANNDLENKIQDWYDKKGPAAIQKNYSPYYNTIDDLKDQIVDLTVGNNKTLLDIDNTRMTLDDFRIKFEMEQNLRQGVDADINGLRQVLDNLTMEKSDLEMQYETLQEELMALKKNHKEEMSQLTGQNSGDVNVEINVAPGKDLTKTLNDMRQEYEQLIAKNRKDIENQYETQITQIEHEVSSSGQEVQSSAKEVTQLRHGVQELEIELQSQLSKKAALEKSLEDTKNRYCGQLQMIQEQISNLEAQITDVRQEIECQNQEYSLLLSIKMRLEKEIETYHNLLEGGQEDFESSGAGKIGLGGRGGSGGSYGRGSRGGSGGSYGGGGSGGGYGGGSGSRGGSGGSYGGGSGSGGGSGGGYGGGSGGGHSGGSGGGHSGGSGGNYGGGSGSGGGSGGGYGGGSGSRGGSGGSHGGGSGFGGESGGSYGGGEEASGSGGGYGGGSGKSSHS
B6: Ribosome-binding protein 1 (protein, UniProt Q9P2E9 1-1410, looked up)
Ribosome-binding protein 1: MDIYDTQTLGVVVFGGFMVVSAIGIFLVSTFSMKETSYEEALANQRKEMAKTHHQKVEKKKKEKTVEKKGKTKKKEEKPNGKIPDHDPAPNVTVLLREPVRAPAVAVAPTPVQPPIIVAPVATVPAMPQEKLASSPKDKKKKEKKVAKVEPAVSSVVNSIQVLTSKAAILETAPKEVPMVVVPPVGAKGNTPATGTTQGKKAEGTQNQSKKAEGAPNQGRKAEGTPNQGKKTEGTPNQGKKAEGTPNQGKKAEGTPNQGKKAEGAQNQGKKVDTTPNQGKKVEGAPTQGRKAEGAQNQAKKVEGAQNQGKKAEGAQNQGKKGEGAQNQGKKAEGAQNQGKKAEGAQNQGKKAEGAQNQGKKAEGAQNQGKKAEGAQNQGKKAEGAQNQGKKVEGAQNQGKKAEGAQNQGKKAEGAQNQGKKAEGAQNQGKKAEGAQNQGKKAEGAQNQGKKAEGAQNQGKKAEGAQNQGKKVEGAQNQGKKAEGAQNQGKKAEGAQNQGKKAEGAQNQGQKGEGAQNQGKKTEGAQGKKAERSPNQGKKGEGAPIQGKKADSVANQGTKVEGITNQGKKAEGSPSEGKKAEGSPNQGKKADAAANQGKKTESASVQGRNTDVAQSPEAPKQEAPAKKKSGSKKKGEPGPPDADGPLYLPYKTLVSTVGSMVFNEGEAQRLIEILSEKAGIIQDTWHKATQKGDPVAILKRQLEEKEKLLATEQEDAAVAKSKLRELNKEMAAEKAKAAAGEAKVKKQLVAREQEITAVQARMQASYREHVKEVQQLQGKIRTLQEQLENGPNTQLARLQQENSILRDALNQATSQVESKQNAELAKLRQELSKVSKELVEKSEAVRQDEQQRKALEAKAAAFEKQVLQLQASHRESEEALQKRLDEVSRELCHTQSSHASLRADAEKAQEQQQQMAELHSKLQSSEAEVRSKCEELSGLHGQLQEARAENSQLTERIRSIEALLEAGQARDAQDVQASQAEADQQQTRLKELESQVSGLEKEAIELREAVEQQKVKNNDLREKNWKAMEALATAEQACKEKLLSLTQAKEESEKQLCLIEAQTMEALLALLPELSVLAQQNYTEWLQDLKEKGPTLLKHPPAPAEPSSDLASKLREAEETQSTLQAECDQYRSILAETEGMLRDLQKSVEEEEQVWRAKVGAAEEELQKSRVTVKHLEEIVEKLKGELESSDQVREHTSHLEAELEKHMAAASAECQNYAKEVAGLRQLLLESQSQLDAAKSEAQKQSDELALVRQQLSEMKSHVEDGDIAGAPASSPEAPPAEQDPVQLKTQLEWTEAILEDEQTQRQKLTAEFEEAQTSACRLQEELEKLRTAGPLESSETEEASQLKERLEKEKKLTSDLGRAATRLQELLKTTQEQLAREKDTVKKLQEQLEKAEDGSSSKEGTSV

Test: Composition of amniotic fluid cell-derived ECM by mass spectrometry (total spectra count)
Settings: protein component found by mass spectrometry in amniotic fluid cell-derived ECM Matrix A (Example 1)

| Molecule | Total Spectra Count Matrix A |
| --- | --- |
| B1 | 27 |
| B2 | 30 |
| B3 | 35 |
| B4 | 29 |
| B5 | 31 |
| B6 | 34 |

Same assay, conditions: protein component found by mass spectrometry in amniotic fluid cell-derived ECM Matrix B (Example 1)

| Molecule | Total Spectra Count Matrix B |
| --- | --- |
| B1 | 73 |
| B2 | 114 |
| B3 | 73 |
| B4 | 15 |
| B5 | 643 |
| B6 | 80 |

Same assay, conditions: protein component found by mass spectrometry in amniotic fluid cell-derived ECM Matrix C (Example 1)

| Molecule | Total Spectra Count Matrix C |
| --- | --- |
| B1 | 19 |
| B2 | 12 |
| B3 | 8 |
| B4 | 2 |
| B5 | 61 |
| B6 | 17 |

Same assay, conditions: protein component found by mass spectrometry in amniotic fluid cell-derived ECM Matrix D (Example 1)

| Molecule | Total Spectra Count Matrix D |
| --- | --- |
| B1 | 26 |
| B2 | 30 |
| B3 | 26 |
| B4 | 16 |
| B5 | 50 |
| B6 | 22 |
